Measured data: PubChem BioAssay AID1259254 (NCATS, 2017)

Screen: 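Finding genes that stop cells copying their DNA twice in one cycle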 (primary screen)
Cell system: human HCT116 colorectal cancer cells
Reagent: single siRNA against human genes
Duration: 3 days
Read-out: 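Imaged Hoechst DNA stain sorts each cell into a cycle phase by DNA amount; per plate, G2 fraction set to 0% for non-targeting and 100% for GMNN siRNA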
Direction: G2 robust z-score: higher = more G2 cells, more excess DNA replication
Call rule: 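An siRNA counts as active if its G2 robust z-score lies at least 5 MADs above the screen median; here such calls match roughly 38% of GMNN control or more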
The whole screen tested about 59,000 reagents; below is a random part of them. About 1,550 of them (2.6%) were called active. 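G2 share is only a proxy for re-replication; each gene was hit by three separate siRNAs, and active genes were retested.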 A number with no mark means an inactive call. The numbers tell different reagents against one gene apart. Further read-outs or replicates are left out here. The record does not give: the amount of reagent.

Knock-down of RP9 #1 gave: G2 robust z-score -0.012. With knock-down of RP9 #2, the screen gave G2 robust z-score -0.939. Depletion of RP9 #3 came out at: G2 robust z-score -0.389. Depletion of COL20A1 #1 came out at: G2 robust z-score -0.51. After knock-down of COL20A1 #2, the screen gave G2 robust z-score -1.04. For COL20A1 #3 the deposit lists G2 robust z-score 1.22.

C19orf53 #1 showed G2 robust z-score -0.694. With knock-down of C19orf53 #2 the results were G2 robust z-score 1.4. C19orf53 #3 showed G2 robust z-score 0.66. CPB1 #1 gave G2 robust z-score 0.88. Against CPB1 #2, the values are G2 robust z-score 0.158. Against CPB1 #3, the entry reads G2 robust z-score -0.541.

Knock-down of PNLIP #1 came out at: G2 robust z-score -0.0344. PNLIP #2 scored G2 robust z-score 0.228. After knock-down of PNLIP #3 the results were G2 robust z-score -0.344. CDH2 #1 gave G2 robust z-score 2.2. For CDH2 #2, the values are G2 robust z-score 1.95. After knock-down of CDH2 #3, the record shows G2 robust z-score 0.495.

ANKRD20A18P #1 gave G2 robust z-score 1.29. For ANKRD20A18P #2, the values are G2 robust z-score 0.175. After knock-down of ANKRD20A18P #3 the results were G2 robust z-score 0.21. After knock-down of UNC119 #1 the results were G2 robust z-score 2.8. UNC119 #2 gave G2 robust z-score 0.0196. Depletion of UNC119 #3 came out at: G2 robust z-score -0.438.

Taken from above:
PNLIP #2, G2 robust z-score = 0.228
Value of CDH2 #3 under “G2 robust z-score”: 0.495
